# Measurements from publication PMC12431657, “Discovery and mechanistic insights of dibenzoylmethane as a broad spectrum inhibitor of coronavirus” (PLOS Pathogens, 2025).
# Counter-ions that a name gives are not always drawn. Like-named read-outs stand apart in the source and are kept apart here. In all, about 3,300 compounds went through this assay and about 60 (2%) showed an effect of 50% or more. The list shows a part of the results.
# System: HCoV-OC43
# Set-up: species or system RD; HTS, protection from HCoV-OC43 induced cell death, luminescent cell viability (CellCounting-Lite 2.0), inhibition rate
structure (smiles),measurement,setting,value
Cc1cccc(C=O)c1 [m-Tolualdehyde],OC43 Inhibition rate,"24 h, 10 µM; inhibitor",-0.1%
COC[C@]12CN(C)C3[C@@H]4[C@H](OC)[C@H]1[C@@]3([C@@H](OC)C[C@H]2O)[C@]1(O)C[C@@]2(O)[C@H](OC(=O)c3ccccc3)[C@@H]1[C@]4(OC(C)=O)[C@@H](O)[C@@H]2OC [Beiwutine],OC43 Inhibition rate,"24 h, 10 µM; inhibitor",2.9%
C[C@]12CC[C@H](O)C[C@@H]1CC[C@@H]1[C@@H]2CC[C@]2(C)C(=O)CC[C@@H]12 [Epiandrosterone],OC43 Inhibition rate,"24 h, 10 µM; inhibitor",-0.1%
C[C@]12CC[C@H](O)C[C@@]1(O)CC[C@@H]1[C@@H]2CC[C@]2(C)[C@@H](c3ccc(=O)oc3)[C@@H](O)[C@H]3O[C@]132 [Desacetylcinobufotalin],OC43 Inhibition rate,"24 h, 10 µM; inhibitor",6.4%
C[C@H]1CC[C@H]2[C@H](C)[C@@H]3CC[C@@H]4[C@@H](C[C@H]5[C@H]4C[C@@H](O)[C@H]4C[C@@H](O)CC[C@@]45C)[C@@H]3CN2C1 [Hupehenine],OC43 Inhibition rate,"24 h, 10 µM; inhibitor",-1.2%
COc1cc(CCN)ccc1O [3-Methoxytyramine (hydrochloride)],OC43 Inhibition rate,"24 h, 10 µM, inhibitor",-0.5%
"CC(=O)C(=O)c1ccccc1 [1-Phenylpropane-1,2-dione]",OC43 Inhibition rate,"24 h, 10 µM; inhibitor",5%
C=CCc1cc(OC)c2c(c1)OCO2 [Myristicin],OC43 Inhibition rate,"24 h, 10 µM; inhibitor",-0.6%
C=C1CC[C@H]2[C@@H](/C=C(\C)C(=O)[C@@]3(O)C[C@H](C)[C@H](O)[C@@H]3[C@@H]1O)C2(C)C [Lathyrol],OC43 Inhibition rate,"24 h, 10 µM; inhibitor",-0.3%
C=C(C)[C@@H]1[C@H]2OC(=O)[C@@H]1[C@]1(O)C[C@H]3O[C@]34C(=O)O[C@H]2[C@]14C [Picrotoxinin],OC43 Inhibition rate,"24 h, 10 µM; inhibitor",0.5
COCc1c(CO)cnc(C)c1O [4'-O-Methylpyridoxine],OC43 Inhibition rate,"24 h, 10 µM; inhibitor",-1.3%
CC(C)C[C@H](NP(=O)(O)O[C@@H]1O[C@@H](C)[C@H](O)[C@@H](O)[C@H]1O)C(=O)N[C@@H](Cc1c[nH]c2ccccc12)C(=O)O [Phosphoramidon (Disodium)],OC43 Inhibition rate,"24 h, 10 µM; inhibitor",1.6%
C=C[C@@]12CN(C)[C@H]3C[C@]14C(=Nc1ccccc14)[C@@H]1C[C@@H]2[C@@H]3CO1 [Koumine],OC43 Inhibition rate,"24 h, 10 µM; inhibitor",-0.3%
O=C(O)COc1ccccc1 [Phenoxyacetic acid],OC43 Inhibition rate,"24 h, 10 µM; inhibitor",0.6%
CCN1C[C@@]2(COC)[C@H]3[C@@H](OC)[C@H]4[C@@H]1[C@]3([C@@H](OC)C[C@H]2OC(C)=O)[C@@H]1C[C@@]2(O)[C@H](OC(=O)c3ccccc3)[C@@H]1[C@]4(OC(C)=O)[C@@H](O)[C@@H]2OC [Flaconitine],OC43 Inhibition rate,"24 h, 10 µM; inhibitor",0.4%
CC(=O)O[C@H]1[C@H]2O[C@]23[C@@H]2CC[C@@H]4C[C@@H](O)CC[C@]4(C)[C@H]2CC[C@]3(C)[C@H]1c1ccc(=O)oc1 [Cinobufagin],OC43 Inhibition rate,"24 h, 10 µM; inhibitor",3.3
C[C@]12CC[C@@H](O)C[C@@H]1CC[C@@H]1[C@@H]2[C@@H](O)C[C@]2(C)C(=O)CC[C@@H]12 [11β-Hydroxyandrosterone],OC43 Inhibition rate,"24 h, 10 µM; inhibitor",16.5%
CCN1C[C@]2(COC)[C@H](O)C[C@H](OC)[C@]34C1[C@H]([C@H](OC)[C@H]23)[C@@]1(OC(C)=O)C[C@H](OC)[C@@]2(O)C[C@@H]4[C@@H]1[C@H]2OC(=O)c1ccc(OC)cc1 [Yunaconitine],OC43 Inhibition rate,"24 h, 10 µM; inhibitor",0%
COc1ccc(C(=O)O[C@H]2CC[C@@]3(C)[C@@H]4CC[C@H]5[C@]6(O)C[C@H](O)[C@@]7(O)[C@@H](CN8C[C@@H](C)CC[C@H]8[C@@]7(C)O)[C@]6(O)C[C@@]53O[C@]24O)cc1OC [Veratridine],OC43 Inhibition rate,"24 h, 10 µM; inhibitor",2.4%
CC(C)=CCC[C@](C)(O)[C@H]1CC[C@]2(C)[C@@H]1[C@H](O)C[C@@H]1[C@@]3(C)CC[C@H](O)C(C)(C)[C@@H]3[C@@H](O[C@@H]3O[C@H](CO)[C@@H](O)[C@H](O)[C@H]3O)C[C@]12C [Ginsenoside Rh1],OC43 Inhibition rate,"24 h, 10 µM; inhibitor",0.5%
COc1ccc(C=O)cc1O [Isovanillin],OC43 Inhibition rate,"24 h, 10 µM; inhibitor",0.2%
O=c1cccc2n1CC1CC2CN2CCCCC12 (stereo not drawn) [Thermopsine],OC43 Inhibition rate,"24 h, 10 µM; inhibitor",0.3%
CC(=O)/C=C/c1ccccc1 [trans-Benzylideneacetone],OC43 Inhibition rate,"24 h, 10 µM, inhibitor",0.1%
CN(C)NC(=O)CCC(=O)O [Daminozide],OC43 Inhibition rate,"24 h, 10 µM; inhibitor",3.1%
C/C=C(\C)C(=O)N[C@@H](c1ccccc1)[C@@H](O)C(=O)O[C@H]1C[C@@]2(O)[C@@H](OC(=O)c3ccccc3)[C@@H]3[C@]4(OC(C)=O)CO[C@@H]4C[C@H](O)[C@@]3(C)C(=O)[C@H](OC(C)=O)C(=C1C)C2(C)C [Cephalomannine],OC43 Inhibition rate,"24 h, 10 µM; inhibitor",-0.5%
CCN(CC)N=O [N-Nitrosodiethylamine],OC43 Inhibition rate,"24 h, 10 µM; inhibitor",-0.2%
C[C@@H](NC(=O)[C@@H](N)Cc1ccc(O)cc1)C(=O)N[C@@H](Cc1ccccc1)C(=O)NCC(=O)N[C@@H](Cc1ccc(O)cc1)C(=O)N1CCC[C@H]1C(=O)N[C@@H](CO)C(N)=O [Dermorphin],OC43 Inhibition rate,"24 h, 10 µM; inhibitor",-1.9
"CCC(=O)O[C@H]1[C@H](O[C@@H]2[C@@H](C)[C@H](O[C@H]3C[C@@](C)(OC)[C@@H](O)[C@H](C)O3)[C@@H](C)C(=O)O[C@H](CC)[C@@](C)(O)[C@H](O)[C@@H](C)C(=O)[C@H](C)C[C@@]2(C)O)O[C@H](C)C[C@@H]1N(C)C [Erythromycin estolate, erythromycin estolate]",OC43 Inhibition rate,"24 h post infection, 1 h compound pre-incubation; 10 µM; inhibitor",99.7%
C=C1[C@@H]2CC[C@H]3[C@]4(C)C[C@H](O[C@H]5O[C@H](CO)[C@@H](OS(=O)(=O)O)[C@H](OS(=O)(=O)O)[C@H]5OC(=O)CC(C)C)C[C@@H](C(=O)O)[C@H]4CC[C@]3(C2)[C@H]1O [Atractyloside (potassium salt)],OC43 Inhibition rate,"24 h, 10 µM; inhibitor",-0.1%
COc1cc2c3c(c1OC)-c1ccccc1C[C@H]3[N+](C)(C)CC2 [N-Methylnuciferine],OC43 Inhibition rate,"24 h, 10 µM; inhibitor",-4.6%

# Copied from the results shown (2 entries):
structure (smiles),measurement,setting,value
C=CCc1cc(OC)c2c(c1)OCO2 [Myristicin],OC43 Inhibition rate,"24 h, 10 µM; inhibitor",-0.6%
C=C1CC[C@H]2[C@@H](/C=C(\C)C(=O)[C@@]3(O)C[C@H](C)[C@H](O)[C@@H]3[C@@H]1O)C2(C)C [Lathyrol],OC43 Inhibition rate,"24 h, 10 µM; inhibitor",-0.3%
